Source: US12036227B2, “Combination therapy” (Novartis AG, priority 2017, dated 2024)
At least one read-out could not be matched to a standard name with certainty.

Assay: Pharmacokinetic assessment after oral tablets, once daily, fasted subjects
Assay type: in vivo, human
Settings: single 100 mg dose and single 200 mg dose
Procedure: Compound of formula (I) was formulated for oral dosing into tablets containing about 50 mg of Compound of formula (I) according to principles well known in the art. A number of tablets sufficient to provide a desired dosage were administered once daily to fasted subjects. Subjects were treated at doses of 100 mg once per day, or 200 mg once per day. Serial blood samples for pharmacokinetic (PK) assessments were collected up to 48 hours after the first dose of Compound of formula (I) (Cycle 1 Day 1), and up to 24 hours after multiple doses (Cycle 1 Day 15). Preliminary available data are as follows. […] Mean plasma exposure over the dose interval of 24 hours (AUCtau) on day 1 of dosing was 5679 hr·ng/ml and 10019 hr·ng/ml after the 100 mg and 200 mg doses of Compound of formula (I), respectively.

Cc1ccc(NC(=O)c2ccnc(C(F)(F)F)c2)cc1-c1cc(OCCO)nc(N2CCOCC2)c1 [Compound of formula (I), N-(3-(2-(2-hydroxyethoxy)-6-morpholinopyridin-4-yl)-4-methylphenyl)-2-(trifluoromethyl)isonicotinamide]
time at which Cmax was achieved after administration: ≤ 4 h
